Results taken from publication doi:10.1101/2025.10.29.685266.
Results are given in words; binding and its absence hold for the method and conditions named. Binding seen in cells or lysates may run through a third protein. Some results given as binding are weak or reduced against the parent protein; the word gives no strength.

By UniProt entry, the sequences of proteins in these tests, tags left out.
UniProt O43151: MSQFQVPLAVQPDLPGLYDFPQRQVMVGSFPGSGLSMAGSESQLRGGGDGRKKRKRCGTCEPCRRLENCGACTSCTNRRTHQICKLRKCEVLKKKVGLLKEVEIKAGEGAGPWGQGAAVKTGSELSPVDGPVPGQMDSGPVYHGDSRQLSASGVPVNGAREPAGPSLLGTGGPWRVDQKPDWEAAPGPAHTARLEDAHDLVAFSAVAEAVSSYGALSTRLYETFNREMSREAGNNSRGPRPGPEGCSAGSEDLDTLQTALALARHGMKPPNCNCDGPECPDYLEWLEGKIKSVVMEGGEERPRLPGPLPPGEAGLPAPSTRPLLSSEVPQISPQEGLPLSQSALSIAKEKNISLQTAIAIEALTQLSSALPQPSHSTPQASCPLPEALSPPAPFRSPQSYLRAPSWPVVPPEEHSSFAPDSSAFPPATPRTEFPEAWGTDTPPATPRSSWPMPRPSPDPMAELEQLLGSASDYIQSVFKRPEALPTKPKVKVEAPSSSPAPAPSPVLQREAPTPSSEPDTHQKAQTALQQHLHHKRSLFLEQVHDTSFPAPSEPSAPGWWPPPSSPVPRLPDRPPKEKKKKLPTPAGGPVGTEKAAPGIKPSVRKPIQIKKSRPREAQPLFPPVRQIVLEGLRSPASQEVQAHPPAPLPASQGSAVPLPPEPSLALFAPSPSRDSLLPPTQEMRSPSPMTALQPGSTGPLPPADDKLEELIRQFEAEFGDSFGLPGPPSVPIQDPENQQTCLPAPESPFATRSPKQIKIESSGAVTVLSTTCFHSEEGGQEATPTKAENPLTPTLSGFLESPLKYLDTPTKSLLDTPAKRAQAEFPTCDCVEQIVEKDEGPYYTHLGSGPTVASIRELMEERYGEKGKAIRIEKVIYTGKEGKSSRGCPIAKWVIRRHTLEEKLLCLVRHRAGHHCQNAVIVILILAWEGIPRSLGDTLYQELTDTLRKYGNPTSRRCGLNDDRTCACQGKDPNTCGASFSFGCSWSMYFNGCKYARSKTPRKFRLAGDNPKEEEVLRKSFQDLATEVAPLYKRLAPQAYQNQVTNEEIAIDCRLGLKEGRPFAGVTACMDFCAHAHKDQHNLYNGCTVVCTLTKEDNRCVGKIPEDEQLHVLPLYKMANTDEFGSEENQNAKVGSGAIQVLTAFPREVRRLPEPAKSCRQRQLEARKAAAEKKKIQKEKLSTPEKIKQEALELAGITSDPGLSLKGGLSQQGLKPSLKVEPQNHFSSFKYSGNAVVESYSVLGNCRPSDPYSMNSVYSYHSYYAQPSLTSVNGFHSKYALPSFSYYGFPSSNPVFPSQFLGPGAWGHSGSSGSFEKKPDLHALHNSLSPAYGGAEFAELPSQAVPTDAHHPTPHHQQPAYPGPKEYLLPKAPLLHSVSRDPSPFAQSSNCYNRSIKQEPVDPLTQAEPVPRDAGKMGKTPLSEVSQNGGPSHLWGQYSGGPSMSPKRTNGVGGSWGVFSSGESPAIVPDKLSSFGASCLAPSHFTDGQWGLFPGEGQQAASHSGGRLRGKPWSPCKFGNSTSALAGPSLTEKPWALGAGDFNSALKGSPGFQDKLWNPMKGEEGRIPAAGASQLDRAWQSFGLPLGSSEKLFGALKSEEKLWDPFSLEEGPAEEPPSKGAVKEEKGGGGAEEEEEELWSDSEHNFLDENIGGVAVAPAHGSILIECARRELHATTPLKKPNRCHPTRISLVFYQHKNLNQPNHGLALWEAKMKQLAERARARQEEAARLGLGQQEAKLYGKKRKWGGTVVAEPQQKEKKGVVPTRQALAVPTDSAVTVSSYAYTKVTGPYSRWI
UniProt P51608: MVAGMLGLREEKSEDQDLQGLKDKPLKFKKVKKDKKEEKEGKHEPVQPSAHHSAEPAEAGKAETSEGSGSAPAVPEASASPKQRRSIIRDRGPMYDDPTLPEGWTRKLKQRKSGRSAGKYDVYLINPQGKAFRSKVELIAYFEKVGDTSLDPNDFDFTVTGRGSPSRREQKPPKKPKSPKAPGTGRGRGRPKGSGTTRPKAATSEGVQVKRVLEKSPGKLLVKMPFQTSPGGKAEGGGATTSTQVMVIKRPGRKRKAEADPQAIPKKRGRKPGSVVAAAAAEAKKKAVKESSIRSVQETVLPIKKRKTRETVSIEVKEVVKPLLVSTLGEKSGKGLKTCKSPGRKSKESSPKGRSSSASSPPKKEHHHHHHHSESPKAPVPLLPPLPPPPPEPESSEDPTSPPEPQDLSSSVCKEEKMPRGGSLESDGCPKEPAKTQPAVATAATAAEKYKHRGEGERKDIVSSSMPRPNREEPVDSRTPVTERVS

Biological target: TET3, endogenous in d8 iNGNs (human (endogenous in iNGNs)) (UniProt O43151)
Test: co-IP

“methyl-CpG-binding protein 2 (MECP2), endogenous in d8 iNGNs (from UniProt P51608 1-486)” was tested, and the binding was “binds”.
